The supplement of paper PMC6411743
± gives the standard deviation of the averaged measurements. The entries are a selection whose mix differs from that of the whole data set.

Amino acid sequences for entries named in this document (tags omitted). A change or cut given only in a name is not applied to a line headed by its entry.
UniProt O43795: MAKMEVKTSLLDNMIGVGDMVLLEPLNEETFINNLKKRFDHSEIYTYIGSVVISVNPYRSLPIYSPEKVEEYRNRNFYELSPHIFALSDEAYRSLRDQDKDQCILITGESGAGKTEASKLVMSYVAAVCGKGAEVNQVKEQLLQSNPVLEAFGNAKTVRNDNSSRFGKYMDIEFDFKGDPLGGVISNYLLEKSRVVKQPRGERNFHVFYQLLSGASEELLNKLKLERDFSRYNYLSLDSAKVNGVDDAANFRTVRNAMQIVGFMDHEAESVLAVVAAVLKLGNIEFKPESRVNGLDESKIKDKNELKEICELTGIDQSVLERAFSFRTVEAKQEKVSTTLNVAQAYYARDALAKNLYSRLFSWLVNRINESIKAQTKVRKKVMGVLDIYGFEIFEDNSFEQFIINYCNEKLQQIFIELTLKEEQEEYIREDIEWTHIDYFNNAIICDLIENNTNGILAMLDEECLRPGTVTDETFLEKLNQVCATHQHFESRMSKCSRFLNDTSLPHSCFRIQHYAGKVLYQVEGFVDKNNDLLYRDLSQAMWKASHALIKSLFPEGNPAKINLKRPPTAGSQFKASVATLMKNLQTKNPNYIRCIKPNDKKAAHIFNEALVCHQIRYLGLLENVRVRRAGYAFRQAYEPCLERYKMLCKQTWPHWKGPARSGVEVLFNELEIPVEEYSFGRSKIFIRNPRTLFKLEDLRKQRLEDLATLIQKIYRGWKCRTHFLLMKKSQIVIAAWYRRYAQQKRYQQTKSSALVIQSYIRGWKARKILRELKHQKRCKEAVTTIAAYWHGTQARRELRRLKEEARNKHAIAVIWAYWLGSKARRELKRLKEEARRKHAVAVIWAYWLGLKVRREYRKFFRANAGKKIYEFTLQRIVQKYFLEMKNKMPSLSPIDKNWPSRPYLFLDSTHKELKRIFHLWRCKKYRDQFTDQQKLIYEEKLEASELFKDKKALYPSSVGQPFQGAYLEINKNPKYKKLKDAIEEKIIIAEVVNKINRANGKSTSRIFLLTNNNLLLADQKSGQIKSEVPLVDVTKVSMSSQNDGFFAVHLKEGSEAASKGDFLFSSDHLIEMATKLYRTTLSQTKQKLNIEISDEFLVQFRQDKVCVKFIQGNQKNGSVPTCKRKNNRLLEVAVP
UniProt P17987, whole entry: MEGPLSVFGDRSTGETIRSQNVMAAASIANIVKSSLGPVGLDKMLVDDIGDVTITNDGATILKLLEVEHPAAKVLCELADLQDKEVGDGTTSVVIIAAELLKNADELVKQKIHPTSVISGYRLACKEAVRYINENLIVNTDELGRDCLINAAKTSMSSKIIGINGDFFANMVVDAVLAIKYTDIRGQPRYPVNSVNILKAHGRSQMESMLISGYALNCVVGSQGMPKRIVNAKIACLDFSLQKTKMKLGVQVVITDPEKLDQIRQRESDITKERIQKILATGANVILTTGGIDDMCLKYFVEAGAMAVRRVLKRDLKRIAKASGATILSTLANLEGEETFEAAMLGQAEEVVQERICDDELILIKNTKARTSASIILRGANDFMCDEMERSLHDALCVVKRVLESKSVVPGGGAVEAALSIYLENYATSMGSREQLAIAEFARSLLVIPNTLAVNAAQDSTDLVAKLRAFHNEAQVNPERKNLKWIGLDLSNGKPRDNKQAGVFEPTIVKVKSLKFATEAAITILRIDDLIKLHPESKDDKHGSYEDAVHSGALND
UniProt Q14203, whole entry: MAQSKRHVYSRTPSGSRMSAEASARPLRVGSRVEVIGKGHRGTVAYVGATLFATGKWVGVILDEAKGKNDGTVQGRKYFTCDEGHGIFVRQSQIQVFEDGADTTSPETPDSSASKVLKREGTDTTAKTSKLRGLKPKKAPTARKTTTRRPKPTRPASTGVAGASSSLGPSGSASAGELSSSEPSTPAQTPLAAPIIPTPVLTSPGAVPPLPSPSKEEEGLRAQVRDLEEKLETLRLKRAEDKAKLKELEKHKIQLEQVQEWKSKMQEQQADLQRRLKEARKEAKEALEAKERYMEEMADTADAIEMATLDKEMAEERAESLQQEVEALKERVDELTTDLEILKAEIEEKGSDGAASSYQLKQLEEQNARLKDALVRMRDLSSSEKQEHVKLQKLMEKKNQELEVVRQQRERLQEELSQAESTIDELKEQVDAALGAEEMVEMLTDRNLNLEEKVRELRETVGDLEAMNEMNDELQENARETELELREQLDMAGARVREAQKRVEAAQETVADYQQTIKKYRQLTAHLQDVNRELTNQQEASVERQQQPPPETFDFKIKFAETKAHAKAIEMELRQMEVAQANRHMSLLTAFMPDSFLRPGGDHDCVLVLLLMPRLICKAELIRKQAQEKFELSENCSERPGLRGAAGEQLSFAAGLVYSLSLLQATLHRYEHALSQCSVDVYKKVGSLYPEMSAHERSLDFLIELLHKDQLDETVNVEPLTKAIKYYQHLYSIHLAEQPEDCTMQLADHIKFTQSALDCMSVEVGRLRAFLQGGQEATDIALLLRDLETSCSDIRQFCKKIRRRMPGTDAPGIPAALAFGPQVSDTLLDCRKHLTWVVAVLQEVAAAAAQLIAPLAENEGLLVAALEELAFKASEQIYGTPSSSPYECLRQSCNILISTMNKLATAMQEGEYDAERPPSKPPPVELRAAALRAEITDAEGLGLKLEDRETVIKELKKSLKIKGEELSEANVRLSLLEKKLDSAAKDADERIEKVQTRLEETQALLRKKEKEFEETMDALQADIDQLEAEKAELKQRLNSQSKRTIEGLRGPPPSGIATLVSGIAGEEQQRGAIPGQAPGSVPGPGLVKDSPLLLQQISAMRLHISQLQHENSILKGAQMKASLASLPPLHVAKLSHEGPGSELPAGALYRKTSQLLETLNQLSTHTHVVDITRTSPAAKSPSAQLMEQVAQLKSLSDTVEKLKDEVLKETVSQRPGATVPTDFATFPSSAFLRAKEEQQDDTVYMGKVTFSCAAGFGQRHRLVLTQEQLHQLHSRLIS
UniProt O75251, whole entry: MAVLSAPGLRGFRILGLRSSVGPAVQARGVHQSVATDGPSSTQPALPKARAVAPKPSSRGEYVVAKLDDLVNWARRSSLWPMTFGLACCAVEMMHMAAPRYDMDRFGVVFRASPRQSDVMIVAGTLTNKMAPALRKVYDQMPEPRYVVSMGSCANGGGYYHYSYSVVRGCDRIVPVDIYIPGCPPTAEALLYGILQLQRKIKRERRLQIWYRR
UniProt Q86VM9: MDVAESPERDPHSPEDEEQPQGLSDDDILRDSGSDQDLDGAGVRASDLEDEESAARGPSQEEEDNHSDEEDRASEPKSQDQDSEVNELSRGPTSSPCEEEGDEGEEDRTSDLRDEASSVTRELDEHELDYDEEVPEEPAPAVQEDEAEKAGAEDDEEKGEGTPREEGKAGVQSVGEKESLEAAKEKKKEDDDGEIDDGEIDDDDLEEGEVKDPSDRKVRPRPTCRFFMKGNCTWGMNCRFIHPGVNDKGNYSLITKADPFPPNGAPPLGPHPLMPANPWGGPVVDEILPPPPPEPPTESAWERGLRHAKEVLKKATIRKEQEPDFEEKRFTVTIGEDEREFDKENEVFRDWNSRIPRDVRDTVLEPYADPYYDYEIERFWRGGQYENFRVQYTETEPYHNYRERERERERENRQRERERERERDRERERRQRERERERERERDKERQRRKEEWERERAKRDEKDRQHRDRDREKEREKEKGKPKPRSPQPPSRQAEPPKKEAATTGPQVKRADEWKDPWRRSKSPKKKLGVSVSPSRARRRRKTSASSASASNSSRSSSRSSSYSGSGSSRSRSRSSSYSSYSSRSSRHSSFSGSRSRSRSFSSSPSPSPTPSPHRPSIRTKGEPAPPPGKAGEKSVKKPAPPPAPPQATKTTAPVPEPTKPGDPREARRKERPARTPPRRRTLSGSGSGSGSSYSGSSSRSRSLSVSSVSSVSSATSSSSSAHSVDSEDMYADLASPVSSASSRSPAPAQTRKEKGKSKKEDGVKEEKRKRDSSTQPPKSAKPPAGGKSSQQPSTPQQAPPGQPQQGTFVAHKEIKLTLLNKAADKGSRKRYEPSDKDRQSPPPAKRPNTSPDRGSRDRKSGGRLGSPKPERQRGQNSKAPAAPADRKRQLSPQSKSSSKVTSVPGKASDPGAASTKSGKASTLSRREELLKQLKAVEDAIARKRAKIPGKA
UniProt P18887, whole entry: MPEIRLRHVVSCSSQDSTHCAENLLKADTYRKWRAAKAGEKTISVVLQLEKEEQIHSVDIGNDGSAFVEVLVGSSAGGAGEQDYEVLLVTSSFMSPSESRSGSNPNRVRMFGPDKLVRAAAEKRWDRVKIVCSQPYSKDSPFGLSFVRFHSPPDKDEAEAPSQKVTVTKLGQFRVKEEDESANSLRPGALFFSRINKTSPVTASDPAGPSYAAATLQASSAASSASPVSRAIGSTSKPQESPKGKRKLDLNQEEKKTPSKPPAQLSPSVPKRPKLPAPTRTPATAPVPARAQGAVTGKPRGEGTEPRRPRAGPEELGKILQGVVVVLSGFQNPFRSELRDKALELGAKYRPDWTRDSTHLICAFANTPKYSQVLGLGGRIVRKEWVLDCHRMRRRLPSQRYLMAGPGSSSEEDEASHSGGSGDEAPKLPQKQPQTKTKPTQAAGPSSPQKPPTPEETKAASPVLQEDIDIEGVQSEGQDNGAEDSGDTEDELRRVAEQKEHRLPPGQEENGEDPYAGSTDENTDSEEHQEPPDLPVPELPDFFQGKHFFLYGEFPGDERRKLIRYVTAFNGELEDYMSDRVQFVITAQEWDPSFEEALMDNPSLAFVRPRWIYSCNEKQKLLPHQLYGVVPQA
UniProt Q7KZI7: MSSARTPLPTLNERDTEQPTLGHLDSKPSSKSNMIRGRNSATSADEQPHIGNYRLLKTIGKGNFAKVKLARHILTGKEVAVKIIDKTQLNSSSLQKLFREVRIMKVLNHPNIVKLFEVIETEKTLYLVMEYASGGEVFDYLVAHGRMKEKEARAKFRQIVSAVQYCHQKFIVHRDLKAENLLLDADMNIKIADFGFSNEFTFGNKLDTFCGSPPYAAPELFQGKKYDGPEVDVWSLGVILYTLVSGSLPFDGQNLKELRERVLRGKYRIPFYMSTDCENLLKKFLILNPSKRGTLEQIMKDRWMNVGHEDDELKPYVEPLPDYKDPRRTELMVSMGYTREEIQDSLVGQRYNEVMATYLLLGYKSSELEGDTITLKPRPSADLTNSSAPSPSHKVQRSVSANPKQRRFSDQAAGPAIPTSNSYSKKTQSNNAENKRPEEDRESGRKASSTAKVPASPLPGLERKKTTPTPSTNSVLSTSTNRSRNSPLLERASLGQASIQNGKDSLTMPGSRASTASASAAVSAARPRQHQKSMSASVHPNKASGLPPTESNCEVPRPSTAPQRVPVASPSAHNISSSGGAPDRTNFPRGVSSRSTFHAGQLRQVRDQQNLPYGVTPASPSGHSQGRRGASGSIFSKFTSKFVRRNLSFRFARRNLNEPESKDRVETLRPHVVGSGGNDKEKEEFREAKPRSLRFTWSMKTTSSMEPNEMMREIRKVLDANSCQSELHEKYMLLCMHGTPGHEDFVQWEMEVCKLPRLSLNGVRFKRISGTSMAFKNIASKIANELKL
UniProt Q9GZN1, whole entry: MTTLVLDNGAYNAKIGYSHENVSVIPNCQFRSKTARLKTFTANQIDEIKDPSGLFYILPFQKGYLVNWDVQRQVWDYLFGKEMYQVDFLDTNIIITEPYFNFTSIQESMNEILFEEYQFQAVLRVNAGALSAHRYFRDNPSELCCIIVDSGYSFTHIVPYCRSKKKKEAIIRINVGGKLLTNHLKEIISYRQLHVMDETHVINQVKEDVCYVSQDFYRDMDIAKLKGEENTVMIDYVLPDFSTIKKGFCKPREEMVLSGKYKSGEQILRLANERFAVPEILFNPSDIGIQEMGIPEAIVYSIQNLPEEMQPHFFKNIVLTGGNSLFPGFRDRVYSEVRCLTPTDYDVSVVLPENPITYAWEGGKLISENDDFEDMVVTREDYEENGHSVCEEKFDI
UniProt Q16342: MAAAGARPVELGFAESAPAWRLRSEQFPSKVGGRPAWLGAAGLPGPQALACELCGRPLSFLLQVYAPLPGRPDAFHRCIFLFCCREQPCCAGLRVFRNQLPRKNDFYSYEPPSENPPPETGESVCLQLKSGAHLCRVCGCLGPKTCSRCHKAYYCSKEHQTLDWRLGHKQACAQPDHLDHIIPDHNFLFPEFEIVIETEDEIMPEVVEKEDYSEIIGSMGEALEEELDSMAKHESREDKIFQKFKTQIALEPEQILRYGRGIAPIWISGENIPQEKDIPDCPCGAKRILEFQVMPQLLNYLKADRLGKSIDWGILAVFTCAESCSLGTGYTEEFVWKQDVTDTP
UniProt Q14493, whole entry, looked up: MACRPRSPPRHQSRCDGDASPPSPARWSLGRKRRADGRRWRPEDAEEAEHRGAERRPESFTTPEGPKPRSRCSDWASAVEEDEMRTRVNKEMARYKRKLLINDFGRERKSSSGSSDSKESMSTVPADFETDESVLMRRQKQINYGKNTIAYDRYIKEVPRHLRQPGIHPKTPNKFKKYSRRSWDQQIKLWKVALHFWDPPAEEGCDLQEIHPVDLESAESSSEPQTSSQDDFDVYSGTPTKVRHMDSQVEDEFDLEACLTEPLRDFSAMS

Compound: Nc1ncnc2c1ncn2[C@@H]1O[C@H](COP(=O)(O)OP(=O)(O)NP(=O)(O)O)[C@@H](O)[C@H]1O [adenylyl imidodiphosphate]
Assay: NP40-soluble protein abundance relative to vehicle (solubility fold change) (ratio); higher = more soluble protein in presence of AMP-PNP
In short: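 Jurkat crude lysate (Dounce-homogenised) was treated with eight concentrations from 0.1 to 10 mM for 10 min at room temperature, then 3 min at 37 °C. It was solubilised with 0.8% NP40 and benzonase (60 min, 4 °C) and ultracentrifuged, and the supernatant was TMT-labelled for LC-MS/MS. Intensities were vsn-normalised, and the value is the fold change against the NP40-processed vehicle per replicate, from three independent experiments.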

Row | Target | NP40-soluble protein abundance (concentration: 1mM) | NP40-soluble protein abundance (concentration: 2mM) | NP40-soluble protein abundance (concentration: 4mM) | NP40-soluble protein abundance (concentration: 6mM) | NP40-soluble protein abundance (concentration: 8mM) | NP40-soluble protein abundance (concentration: 10mM)
1 | F5GXF9 and related entries (UniProt P51825) | 1.034 ± 0.0066 | 1.06 ± 0.061 | 1.04 ± 0.038 | 1.06 ± 0.048 | 1.03 ± 0.057 | 1.08 ± 0.038
2 | E9PLE4 and related entries (UniProt Q9BVG9) | 1.02 ± 0.02 | 1.04 ± 0.054 | 1.01 ± 0.045 | 1.03 ± 0.023 | 1.03 ± 0.013 | 1.03 ± 0.012
3 | E9PDF6 and related entries (UniProt O43795) | 2.06 ± 0.29 | 2.04 ± 0.2 | 2.31 ± 0.29 | 2.37 ± 0.28 | 2.45 ± 0.32 | 2.39 ± 0.27
4 | E7EVC7 and related entries (UniProt Q676U5) | 1.04 ± 0.032 | 1.07 ± 0.051 | 1.02 ± 0.019 | 0.984 ± 0.062 | 0.948 ± 0.062 | 0.983 ± 0.072
5 | E7ETB3 and related entries (UniProt Q9ULA0) | 0.985 ± 0.032 | 0.937 ± 0.051 | 0.967 ± 0.015 | 0.926 ± 0.034 | 0.962 ± 0.044 | 0.914 ± 0.085
6 | F5H136 and related entries (UniProt P17987) | 0.97 ± 0.059 | 0.926 ± 0.055 | 0.928 ± 0.088 | 0.937 ± 0.08 | 0.9 ± 0.049 | 0.929 ± 0.13
7 | E5RJ40 and related entries (UniProt Q15043) | 1.02 ± 0.026 | 1.03 ± 0.019 | 0.997 ± 0.012 | 0.989 ± 0.021 | 0.979 ± 0.012 | 0.972 ± 0.018
8 | E7EX90 and related entries (UniProt Q14203) | 1 ± 0.048 | 1.02 ± 0.028 | 0.974 ± 0.043 | 0.967 ± 0.096 | 0.932 ± 0.062 | 0.957 ± 0.088
9 | E9PJB9 and related entries (UniProt Q9Y315) | 0.926 ± 0.051 | 0.936 ± 0.077 | 0.901 ± 0.084 | 0.963 ± 0.041 | 0.927 ± 0.052 | 0.951 ± 0.13
10 | F2Z2W7 and related entries (UniProt Q8IZ69) | 1.01 ± 0.02 | 1.02 ± 0.017 | 1.03 ± 0.016 | 1 ± 0.015 | 0.973 ± 0.029 | 0.955 ± 0.042
11 | E9PJE9 and related entries (UniProt P78410) | 1 ± 0.017 | 1.02 ± 0.021 | 1.01 ± 0.021 | 0.988 ± 0.021 | 0.965 ± 0.02 | 1 ± 0.063
12 | E9PHV5 and related entries (UniProt P28290) | 0.98 ± 0.045 | 0.999 ± 0.012 | 0.983 ± 0.043 | 0.984 ± 0.029 | 0.999 ± 0.023 | 1.01 ± 0.017
13 | E9PBC1 and related entries (UniProt O95208) | 1.05 ± 0.034 | 1.041 ± 0.0081 | 1.02 ± 0.02 | 0.998 ± 0.052 | 0.992 ± 0.014 | 1 ± 0.021
14 | E7ES96 and related entries (UniProt P49768) | 0.9727 ± 0.0029 | 0.9587 ± 0.0011 | 0.961 ± 0.017 | 0.9741 ± 0.0013 | 0.967 ± 0.011 | 0.961 ± 0.016
15 | E5RJV1 and related entries (UniProt P63151) | 0.981 ± 0.049 | 0.889 ± 0.035 | 0.934 ± 0.022 | 0.968 ± 0.046 | 0.982 ± 0.027 | 0.921 ± 0.027
16 | E9PLL0 and related entries (UniProt Q96EY5) | 1.04 ± 0.014 | 1.05 ± 0.042 | 1.08 ± 0.018 | 1.07 ± 0.012 | 1.09 ± 0.038 | 1.05 ± 0.031

Row | Target | NP40-soluble protein abundance (concentration: 1mM) | NP40-soluble protein abundance (concentration: 2mM) | NP40-soluble protein abundance (concentration: 4mM) | NP40-soluble protein abundance (concentration: 6mM) | NP40-soluble protein abundance (concentration: 8mM) | NP40-soluble protein abundance (concentration: 10mM)
17 | F5GXJ1 and related entries (UniProt O75251) | 0.936 ± 0.064 | 0.848 ± 0.074 | 1.01 ± 0.088 | 1.02 ± 0.1 | 1.03 ± 0.14 | 1.01 ± 0.11
18 | F8VVA7 and related entries (UniProt P61923) | 1.08 ± 0.073 | 1.08 ± 0.057 | 1.05 ± 0.09 | 0.967 ± 0.077 | 0.959 ± 0.076 | 0.984 ± 0.11
19 | F8VS36 and related entries (UniProt Q92994) | 1.05 ± 0.074 | 1.05 ± 0.049 | 1.02 ± 0.032 | 0.9827 ± 0.0086 | 0.998 ± 0.026 | 0.997 ± 0.013
20 | E7ERS3 and related entries (UniProt Q86VM9) | 1.05 ± 0.038 | 1.17 ± 0.083 | 1.12 ± 0.018 | 1.17 ± 0.095 | 1.16 ± 0.074 | 1.26 ± 0.1
21 | E7EWP0 and related entries (UniProt O43674) | 0.945 ± 0.027 | 0.922 ± 0.016 | 0.998 ± 0.076 | 1.08 ± 0.14 | 1.13 ± 0.076 | 1.09 ± 0.086
22 | F5H8D7 and related entries (UniProt P18887) | 1.01 ± 0.011 | 1.03 ± 0.031 | 1.028 ± 0.0073 | 1.07 ± 0.014 | 1.05 ± 0.03 | 1.11 ± 0.029
23 | E9PC69 and related entries (UniProt Q7KZI7) | 1.11 ± 0.047 | 1.11 ± 0.05 | 1.11 ± 0.021 | 1.07 ± 0.052 | 1.11 ± 0.055 | 1.13 ± 0.029
24 | F8W8G5 and related entries (UniProt P10242) | 1.05 ± 0.069 | 1.03 ± 0.11 | 1.02 ± 0.074 | 0.969 ± 0.02 | 0.994 ± 0.074 | 0.999 ± 0.062
25 | F8W9X7 and related entries (UniProt Q567U6) | 0.966 ± 0.022 | 0.991 ± 0.051 | 0.957 ± 0.028 | 0.961 ± 0.024 | 0.952 ± 0.037 | 0.99 ± 0.047
26 | F8W057 and related entries (UniProt Q9GZN1) | 1.04 ± 0.017 | 1.04 ± 0.013 | 1.09 ± 0.052 | 1.03 ± 0.067 | 1.07 ± 0.045 | 1.06 ± 0.028
27 | E7ESY0 and related entries (UniProt P32019) | 0.945 ± 0.05 | 0.888 ± 0.037 | 0.97 ± 0.021 | 1 ± 0.084 | 1.03 ± 0.05 | 0.968 ± 0.033
28 | E9PJH7 and related entries (UniProt Q9H936) | 0.943 ± 0.027 | 0.917 ± 0.019 | 1 ± 0.075 | 1.08 ± 0.098 | 1.09 ± 0.08 | 1.08 ± 0.067
29 | F2Z2U4 and related entries (UniProt Q9Y4A5) | 0.998 ± 0.036 | 0.989 ± 0.082 | 1.01 ± 0.015 | 0.994 ± 0.03 | 1.03 ± 0.036 | 1 ± 0.055
30 | F5H4V9 and related entries (UniProt Q16342) | 1.01 ± 0.013 | 1.04 ± 0.011 | 1.04 ± 0.057 | 1.06 ± 0.024 | 1.09 ± 0.036 | 1.084 ± 0.0096
31 | F8W7Q4 and related entries (UniProt Q96A26) | 0.97 ± 0.045 | 1.02 ± 0.064 | 0.956 ± 0.078 | 1.03 ± 0.056 | 0.995 ± 0.016 | 0.997 ± 0.025
32 | F8W8D3 and related entries (UniProt Q14493) | 1.02 ± 0.036 | 1.08 ± 0.046 | 1.04 ± 0.075 | 1.03 ± 0.035 | 1.02 ± 0.049 | 1.06 ± 0.071

From no. 7 up to 8, copied from above:
Row | Target | NP40-soluble protein abundance (concentration: 1mM) | NP40-soluble protein abundance (concentration: 2mM) | NP40-soluble protein abundance (concentration: 4mM) | NP40-soluble protein abundance (concentration: 6mM) | NP40-soluble protein abundance (concentration: 8mM) | NP40-soluble protein abundance (concentration: 10mM)
7 | E5RJ40 and related entries (UniProt Q15043) | 1.02 ± 0.026 | 1.03 ± 0.019 | 0.997 ± 0.012 | 0.989 ± 0.021 | 0.979 ± 0.012 | 0.972 ± 0.018
8 | E7EX90 and related entries (UniProt Q14203) | 1 ± 0.048 | 1.02 ± 0.028 | 0.974 ± 0.043 | 0.967 ± 0.096 | 0.932 ± 0.062 | 0.957 ± 0.088
